In this assay the target is human ILT5-mouse Ig fusion protein (soluble, purified from transiently transfected 293 cells) (human) (UniProt O75022). Nature of the assay: ELISA of hybridoma supernatants on purified hILT5-Ig. In general terms: ELISA stands for enzyme-linked immunosorbent assay.

Amino acid sequences for entries named in this document (tags omitted). Residues count along the entry.
UniProt O75022, residues 24-443: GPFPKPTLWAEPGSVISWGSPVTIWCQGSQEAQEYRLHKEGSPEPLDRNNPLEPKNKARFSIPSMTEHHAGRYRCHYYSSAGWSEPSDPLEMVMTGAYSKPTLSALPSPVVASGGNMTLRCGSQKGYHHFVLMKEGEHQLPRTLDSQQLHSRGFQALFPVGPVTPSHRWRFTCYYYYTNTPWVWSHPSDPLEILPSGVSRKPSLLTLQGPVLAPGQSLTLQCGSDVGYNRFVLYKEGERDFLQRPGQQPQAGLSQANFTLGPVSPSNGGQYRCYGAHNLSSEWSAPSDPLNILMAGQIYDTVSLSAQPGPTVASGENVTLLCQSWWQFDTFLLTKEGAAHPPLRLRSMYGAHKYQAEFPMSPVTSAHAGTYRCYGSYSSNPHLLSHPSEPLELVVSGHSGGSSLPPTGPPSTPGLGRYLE

These are yes or no findings as the source states them, for the method shown. Some results given as binding are weak or reduced against the parent protein; the word gives no strength.

B1: TRX585 mouse anti-human ILT5 monoclonal antibody (8G6 mAb, IgG1, kappa) (antibody, V domains shown)
VH: DVQLQESGPGLVKPSQSLFLTCSVTGYSISSSYYWNWIRQFPGNKLEWMGYISFDGSNNYNPSLKNRISITRDTSKNQFFLKLNSVTTEDTATYYCAREKENYYGSSFYYFDYWGLGTSLTVSS
VL: DIQMTQSPASLSVSVGETVTITCRASENIYSNLAWYQQKQGKSPQVLVYAATNLADGVPSRFSGSGSGTQFSLKINSLQSEDFGNYFCQHFWRIPWTFGGGTKLEIK
notes: Murine IgG1, kappa purified from hybridoma supernatant; also called TRX585 antibody; TRX585 mAb
As to B1, the binding result is reported as “binds”.

Source of the values: US20170158765A1 (Merck Sharp & Dohme, published 2017).
